# Test results taken from US20190038659A1, “METHODS OF TREATING AND PREVENTING AMYOTROPHIC LATERAL SCLEROSIS” (priority 2015, published 2019).
# At least one structure is not confirmed: it was looked up by name or label, or the drawing left a doubt.
# Tested on: HERV-K reverse transcriptase
# Assay: HERV-K RT activity in a cell-free system (PERT assay)
# Assay type: biochemical, human endogenous retrovirus-K (HERV-K)
# Conditions: inhibitor added to extracted HERV-K RT just prior to PERT assay
compound,measurement,value
Nc1ccn([C@@H]2CS[C@H](CO)O2)c(=O)n1 [Lamivudine],inhibition of HERV-K RT activity,significant and dose-dependent inhibition
